# Measured values: patent US20250283871A1, “COMPOSITIONS AND METHODS FOR MODULATING THE INTERACTION BETWEEN SS18-SSX FUSION ONCOPROTEIN AND NUCLEOSOMES” (Dana-Farber Cancer Institute, Inc., priority 2020, published 2025)
# B1: WAPL (protein, UniProt Q7Z5K2 1-1190, looked up)
# Wings apart-like protein …: MTSRFGKTYSRKGGNGSSKFDEVFSNKRTTLSTKWGETTFMAKLGQKRPNFKPDIQEIPKKPKVEEESTGDPFGFDSDDESLPVSSKNLAQVKCSSYSESSEAAQLEEVTSVLEANSKISHVVVEDTVVSDKCFPLEDTLLGKEKSTNRIVEDDASISSCNKLITSDKVENFHEEHEKNSHHIHKNADDSTKKPNAETTVASEIKETNDTWNSQFGKRPESPSEISPIKGSVRTGLFEWDNDFEDIRSEDCILSLDSDPLLEMKDDDFKNRLENLNEAIEEDIVQSVLRPTNCRTYCRANKTKSSQGASNFDKLMDGTSQALAKANSESSKDGLNQAKKGGVSCGTSFRGTVGRTRDYTVLHPSCLSVCNVTIQDTMERSMDEFTASTPADLGEAGRLRKKADIATSKTTTRFRPSNTKSKKDVKLEFFGFEDHETGGDEGGSGSSNYKIKYFGFDDLSESEDDEDDDCQVERKTSKKRTKTAPSPSLQPPPESNDNSQDSQSGTNNAENLDFTEDLPGVPESVKKPINKQGDKSKENTRKIFSGPKRSPTKAVYNARHWNHPDSEELPGPPVVKPQSVTVRLSSKEPNQKDDGVFKAPAPPSKVIKTVTIPTQPYQDIVTALKCRREDKELYTVVQHVKHFNDVVEFGENQEFTDDIEYLLSGLKSTQPLNTRCLSVISLATKCAMPSFRMHLRAHGMVAMVFKTLDDSQHHQNLSLCTAALMYILSRDRLNMDLDRASLDLMIRLLELEQDASSAKLLNEKDMNKIKEKIRRLCETVHNKHLDLENITTGHLAMETLLSLTSKRAGDWFKEELRLLGGLDHIVDKVKECVDHLSRDEDEEKLVASLWGAERCLRVLESVTVHNPENQSYLIAYKDSQLIVSSAKALQHCEELIQQYNRAEDSICLADSKPLPHQNVTNHVGKAVEDCMRAIIGVLLNLTNDNEWGSTKTGEQDGLIGTALNCVLQVPKYLPQEQRFDIRVLGLGLLINLVEYSARNRHCLVNMETSCSFDSSICSGEGDDSLRIGGQVHAVQALVQLFLERERAAQLAESKTDELIKDAPTTQHDKSGEWQETSGEIQWVSTEKTDGTEEKHKKEEEDEELDLNKALQHAGKHMEDCIVASYTALLLGCLCQESPINVTTVREYLPEGDFSIMTEMLKKFLSFMNLTCAVGTTGQKSISRVIEYLEHC
# B2: VANGL1 (protein, UniProt Q8TAA9 1-524, looked up)
# Vang-like protein 1: MDTESTYSGYSYYSSHSKKSHRQGERTRERHKSPRNKDGRGSEKSVTIQPPTGEPLLGNDSTRTEEVQDDNWGETTTAITGTSEHSISQEDIARISKDMEDSVGLDCKRYLGLTVASFLGLLVFLTPIAFILLPPILWRDELEPCGTICEGLFISMAFKLLILLIGTWALFFRKRRADMPRVFVFRALLLVLIFLFVVSYWLFYGVRILDSRDRNYQGIVQYAVSLVDALLFIHYLAIVLLELRQLQPMFTLQVVRSTDGESRFYSLGHLSIQRAALVVLENYYKDFTIYNPNLLTASKFRAAKHMAGLKVYNVDGPSNNATGQSRAMIAAAARRRDSSHNELYYEEAEHERRVKKRKARLVVAVEEAFIHIQRLQAEEQQKAPGEVMDPREAAQAIFPSMARALQKYLRITRQQNYHSMESILQHLAFCITNGMTPKAFLERYLSAGPTLQYDKDRWLSTQWRLVSDEAVTNGLRDGIVFVLKCLDFSLVVNVKKIPFIILSEEFIDPKSHKFVLRLQSETSV
# B3: HSDL2 (protein, UniProt Q6YN16 1-418, looked up)
# Hydroxysteroid …: MLPNTGRLAGCTVFITGASRGIGKAIALKAAKDGANIVIAAKTAQPHPKLLGTIYTAAEEIEAVGGKALPCIVDVRDEQQISAAVEKAIKKFGGIDILVNNASAISLTNTLDTPTKRLDLMMNVNTRGTYLASKACIPYLKKSKVAHILNISPPLNLNPVWFKQHCAYTIAKYGMSMYVLGMAEEFKGEIAVNALWPKTAIHTAAMDMLGGPGIESQCRKVDIIADAAYSIFQKPKSFTGNFVIDENILKEEGIENFDVYAIKPGHPLQPDFFLDEYPEAVSKKVESTGAVPEFKEEKLQLQPKPRSGAVEETFRIVKDSLSDDVVKATQAIYLFELSGEDGGTWFLDLKSKGGNVGYGEPSDQADVVMSMTTDDFVKMFSGKLKPTMAFMSGKLKIKGNMALAIKLEKLMNQMNARL
# B4: ZNF362 (protein, UniProt Q5T0B9 1-420, looked up)
# Zinc finger protein 362: MSRSSPSGKGHSRMAEPRFNNPYFWPPPPTMPSQLDNLVLINKIKEQLMAEKIRPPHLPPTSASSQQPLLVPPAPAESSQAVMSLPKLQQVPGLHPQAVPQPDVALHARPATSTVTGLGLSTRTPSVSTSESSAGAGTGTGTSTPSTPTTTSQSRLIASSPTLISGITSPPLLDSIKTIQGHGLLGPPKSERGRKKIKAENPGGPPVLVVPYPILASGETAKEGKTYRCKVCPLTFFTKSEMQIHSKSHTEAKPHKCPHCSKSFANASYLAQHLRIHLGVKPYHCSYCDKSFRQLSHLQQHTRIHTGDRPYKCPHPGCEKAFTQLSNLQSHQRQHNKDKPYKCPNCYRAYSDSASLQIHLSAHAIKHAKAYCCSMCGRAYTSETYLMKHMSKHTVVEHLVSHHSPQRTESPGIPVRISLI
# B5: RAP2B (protein, UniProt P61225 1-180, looked up)
# Ras-related protein Rap-2b: MREYKVVVLGSGGVGKSALTVQFVTGSFIEKYDPTIEDFYRKEIEVDSSPSVLEILDTAGTEQFASMRDLYIKNGQGFILVYSLVNQQSFQDIKPMRDQIIRVKRYERVPMILVGNKVDLEGEREVSYGEGKALAEEWSCPFMETSAKNKASVDELFAEIVRQMNYAAQPNGDEGCCSAC
# B6: FIGNL1 (protein, UniProt Q6PIW4 1-674, looked up)
# Fidgetin-like protein 1: MQTSSSRSVHLSEWQKNYFAITSGICTGPKADAYRAQILRIQYAWANSEISQVCATKLFKKYAEKYSAIIDSDNVESGLNNYAENILTLAGSQQTDSDKWQSGLSINNVFKMSSVQKMMQAGKKFKDSLLEPALASVVIHKEATVFDLPKFSVCGSSQESDSLPNSAHDRDRTQDFPESNRLKLLQNAQPPMVTNTARTCPTFSAPVGESATAKFHVTPLFGNVKKENHSSAKENIGLNVFLSNQSCFPAACENPQRKSFYGSGTIDALSNPILNKACSKTEDNGPKEDSSLPTFKTAKEQLWVDQQKKYHQPQRASGSSYGGVKKSLGASRSRGILGKFVPPIPKQDGGEQNGGMQCKPYGAGPTEPAHPVDERLKNLEPKMIELIMNEIMDHGPPVNWEDIAGVEFAKATIKEIVVWPMLRPDIFTGLRGPPKGILLFGPPGTGKTLIGKCIASQSGATFFSISASSLTSKWVGEGEKMVRALFAVARCQQPAVIFIDEIDSLLSQRGDGEHESSRRIKTEFLVQLDGATTSSEDRILVVGATNRPQEIDEAARRRLVKRLYIPLPEASARKQIVINLMSKEQCCLSEEEIEQIVQQSDAFSGADMTQLCREASLGPIRSLQTADIATITPDQVRPIAYIDFENAFRTVRPSVSPKDLELYENWNKTFGCGK
# B7: XXYLT1 (protein, UniProt Q8NBI6 1-393, looked up)
# Xyloside xylosyltransferase 1: MGLLRGGLPCARAMARLGAVRSHYCALLLAAALAVCAFYYLGSGRETFSSATKRLKEARAGAPAAPSPPALELARGSVAPAPGAKAKSLEGGGAGPVDYHLLMMFTKAEHNAALQAKARVALRSLLRLAKFEAHEVLNLHFVSEEASREVAKGLLRELLPPAAGFKCKVIFHDVAVLTDKLFPIVEAMQKHFSAGLGTYYSDSIFFLSVAMHQIMPKEILQIIQLDLDLKFKTNIRELFEEFDSFLPGAIIGIAREMQPVYRHTFWQFRHENPQTRVGGPPPEGLPGFNSGVMLLNLEAMRQSPLYSRLLEPAQVQQLADKYHFRGHLGDQDFFTMIGMEHPKLFHVLDCTWNRQLCTWWRDHGYSDVFEAYFRCEGHVKIYHGNCNTPIPED
# Tested on: BAF complex subunits and histone proteins
# Experiment: Mass spectrometry proteomics of purified HA-SS18 WT and HA-SS18-SSX1 complexes (Tables 5A-5E)
# Parameters: species or system human
# Conditions: HA-SS18SSX1_NE_peptides: protein co-purified with HA-SS18-SSX1 BAF complexes from soluble nuclear extract (NE), HEK-293T cells
Molecule,Total (peptides),Unique (peptides)
B1,1,1
B2,1,1
B3,1,1
B4,1,1
B5,1,1
B6,1,1
B7,1,1

# Same assay, conditions: HA-SS18WT_NE_peptides: proteins co-purified with HA-SS18 WT from nuclear extract (NE), HEK-293T
Molecule,Total (peptides),Unique (peptides)
B2,1,1
B3,1,1
B4,1,1
B5,2,2
